This note sets out measurements from PubChem BioAssay AID248 (DTP/NCI, 2004).

The list shows only some results of the screen, not a fair sample: it is rich in T/C values a quarter to a half above the control, in often repeated tests (any T/C) and in doses without a T/C. Other doses and runs of a compound stand elsewhere. T/C: endpoint of the treated group in % of that of the vehicle group. Some entries give survivors of the animals treated and no T/C: the source files T/C as zero there, which appears to mark a toxic dose or a test without result, not a measured value. Some doses without a T/C left all or most animals alive at the check, yet need not have been tolerated: survival well below the control is almost never listed, so the zero probably covers shortened survival too. Counts of survivors are from the toxicity check (mostly the fifth day) where no day follows; animals may have died later. Schedules are NCI's codes, read here as Q, the interval in days (D) or hours (H), X, the number of doses. Some schedule codes hold Z or #, which are not explained here.

The experiment relates to L1210 leukemia ip in BDF1 mice, survival T/C. The experiment is described as follows: NCI In Vivo Anticancer Drug Screen. Data for tumor model L1210 Leukemia (intraperitoneal) in B6D2F1 (BDF1) mice. The conditions noted are these: T/C endpoint: mean survival time, higher T/C = longer survival.
The mark [1] stands for this setting: dose: 100.0 mg/kg/injection, schedule: Q01DX001 (ip), vehicle: saline.
The mark [2] stands for this setting: dose: 400.0 mg/kg/injection, schedule: Q01DX001 (ip), vehicle: saline.
Where [3] appears, read: dose: 400.0 mg/kg/injection, schedule: Q01DX009 (ip), vehicle: Klucel (hydroxypropylcellulose) (HPC).
[4] abbreviates: dose: 150.0 mg/kg/injection, schedule: Q01DX001 (ip), vehicle: other.
Setting [5] is: dose: 300.0 mg/kg/injection, schedule: Q01DX001 (ip), vehicle: other.
[6] abbreviates: dose: 400.0 mg/kg/injection, schedule: Q04DX003 (ip), vehicle: saline with Tween-80.
Setting [7] is: dose: 400.0 mg/kg/injection, schedule: Q01DX009 (ip), vehicle: saline with Tween-80.
The mark [8] stands for this setting: dose: 200.0 mg/kg/injection, schedule: Q01DX009 (ip), vehicle: saline with Tween-80.
Where [9] appears, read: dose: 400.0 mg/kg/injection, schedule: Q01DX001 (ip), vehicle: Klucel (hydroxypropylcellulose) (HPC).
Where [10] appears, read: dose: 300.0 mg/kg/injection, schedule: Q01DX001 (ip), vehicle: carboxymethylcellulose (CMC).
Where [11] appears, read: dose: 400.0 mg/kg/injection, schedule: Q04DX003 (ip), vehicle: Klucel (hydroxypropylcellulose) (HPC).

For the compound `CCOC(=O)OC1CC/C(=N\N=C(N)N)C1` (stereo unspecified), the survivor count is, setting by setting: (dose: 60.0 mg/kg/injection, schedule: Q01DX Z (ip), vehicle: methylcellulose (MC)) 6 of 6; (dose: 250.0 mg/kg/injection, schedule: Q01DX Z (ip), vehicle: methylcellulose (MC)) 0 of 6; (dose: 375.0 mg/kg/injection, schedule: Q01DX Z (ip), vehicle: methylcellulose (MC)) 0 of 6; (dose: 500.0 mg/kg/injection, schedule: Q01DX Z (ip), vehicle: methylcellulose (MC)) 0 of 6. With `C=C1C(=O)OC2CCCCCCC12` (stereo unspecified), the survivor count (dose: 200.0 mg/kg/injection, schedule: Q01DX009 (ip), vehicle: saline) was 1 of 3. Turning to `COc1ccc2nc3cc(Cl)ccc3c(NCCCCCN3CCCCC3)c2c1`, the survivor count is 2 of 4 under setting [1] and 0 of 4 under setting [2]. In the case of `CCOc1ccccc1NC(=S)NC1CCCCC1`, the survivor count under setting [3] is 0 of 6. On to `c1ccc2c(c1)C[n+]1ccccc1-2`, for which the survivor count is, setting by setting: under setting [4], 0 of 6; under setting [5], 0 of 6. Consider `SCC(CS)c1nncc2ccccc12`, for which the survivor count by setting is: under setting [1], 3 of 6; (dose: 200.0 mg/kg/injection, schedule: Q01DX001 (ip), vehicle: saline) 0 of 6; under setting [2], 0 of 6. Take `CC1CCC(NC2=NCCO2)C(C)C1` (stereo unspecified): the survivor count is on record as 1 of 6 (dose: 200.0 mg/kg/injection, schedule: Q04DX003 (ip), vehicle: saline with Tween-80) and 0 of 6 under setting [6]. As for `CC(C)(C)NC(=O)Nc1ccccn1`, the survivor count under setting [7] is reported as 2 of 3 and the survivor count under setting [6] is given as 3 of 6. Regarding `CN(C)Nc1ncnc2nc[nH]c12`, the survivor count is, setting by setting: (dose: 200.0 mg/kg/injection, schedule: Q01DX Z (ip), vehicle: carboxymethylcellulose (CMC)) 2 of 6; (dose: 400.0 mg/kg/injection, schedule: Q01DX Z (ip), vehicle: carboxymethylcellulose (CMC)) 0 of 6. Consider `CC1CCCCN1Cc1ccccc1COC(=O)c1cccc(Cl)c1` (stereo unspecified), for which the survivor count is reported as 3 of 3 (dose: 25.0 mg/kg/injection, schedule: Q04DX002 (ip), vehicle: saline with Tween-80); 3 of 3 (dose: 100.0 mg/kg/injection, schedule: Q04DX002 (ip), vehicle: saline with Tween-80); 1 of 3 (dose: 200.0 mg/kg/injection, schedule: Q04DX002 (ip), vehicle: saline with Tween-80); 0 of 3 (dose: 400.0 mg/kg/injection, schedule: Q04DX002 (ip), vehicle: saline with Tween-80).

On to `COc1cc2ccc3c(c2cc1OC)C=[N+](C)CC3`, for which the survivor count (dose: 400.0 mg/kg/injection, schedule: Q01DX009 (ip), vehicle: saline sonified) was 0 of 6.

With `Nc1nc(C=O)c(Cc2ccc(Br)cc2)c(=O)[nH]1`, the survivor count was 2 of 6 under setting [8] and 0 of 6 under setting [7]. `CC1=CC(=O)c2c(O)ccc(O)c2C1=O`: the survivor count (dose: 80.0 mg/kg/injection, schedule: Q01DX001 (ip), vehicle: saline) is 2 of 6. `NNC(=O)CNc1cccc(Cl)c1`: the survivor count (dose: 400.0 mg/kg/injection, schedule: Q04DX002 (ip), vehicle: Klucel (hydroxypropylcellulose) (HPC)) is given as 0 of 3. `CC12OC1(C)C1(C)C3(C)OC3(C)C21C` (stereo unspecified): the survivor count under setting [9] was 3 of 6. Consider `Cc1ccc(NC(=O)N(C)N)cc1`, for which the survivor count under setting [10] is on record as 2 of 6. On to `CC[N+](C)(C)CCCNC(=O)C12CC3CC(CC(C3)C1)C2`, for which the survivor count (dose: 100.0 mg/kg/injection, schedule: Q04DX002 (ip), vehicle: saline) is 0 of 3; the survivor count (dose: 200.0 mg/kg/injection, schedule: Q04DX002 (ip), vehicle: saline) is 0 of 3; the survivor count (dose: 400.0 mg/kg/injection, schedule: Q04DX002 (ip), vehicle: saline) is reported as 0 of 3. As for `C/C=C(\Br)C(=O)Nc1ccc(OCC)cc1`, under setting [2], the survivor count is 0 of 4. Consider `CCC(CC)(COC(C)=O)C[N+](C)(C)C`, for which the survivor count by setting is: under setting [2], 2 of 6; (dose: 400.0 mg/kg/injection, schedule: Q04DX003 (ip), vehicle: saline) 0 of 6. Consider `COC(=O)CCC(NC(=O)OCc1ccccc1)C(=O)O` (stereo unspecified), for which, under setting [11], the survivor count was 0 of 6. On to `COc1cc(NCc2ccccc2)ccc1NC(C)=O`, for which the survivor count is, setting by setting: (dose: 60.0 mg/kg/injection, schedule: Q01DX001 (ip), vehicle: carboxymethylcellulose (CMC)) 1 of 6; (dose: 150.0 mg/kg/injection, schedule: Q01DX001 (ip), vehicle: carboxymethylcellulose (CMC)) 2 of 6; under setting [10], 0 of 6. Turning to `NC(=O)/C(=C\c1ccncc1)c1cccc2ccccc12`, the survivor count is reported as 4 of 6 under setting [3] and 6 of 6 under setting [6]. With `COc1ccc(CCC2(C=O)CNCN2)cc1` (stereo unspecified), the survivor count (dose: 400.0 mg/kg/injection, schedule: Q01DX001 (ip), vehicle: other) is reported as 4 of 4. As to `C1CCN(SN2CCCCC2)CC1`, the survivor count (dose: 400.0 mg/kg/injection, schedule: Q01DX009 (ip), vehicle: saline) is 1 of 6.

On to `Cc1cccc(C)c1NC(=S)NC1CC(C)CC(C)(C)C1` (stereo unspecified), for which the survivor count is 6 of 6 (dose: 100.0 mg/kg/injection, schedule: Q01DX009 (ip), vehicle: Klucel (hydroxypropylcellulose) (HPC)); 6 of 6 (dose: 200.0 mg/kg/injection, schedule: Q01DX009 (ip), vehicle: Klucel (hydroxypropylcellulose) (HPC)); 0 of 6 under setting [3]. Turning to `CCCCCCCCCC(O)CCCC` (stereo unspecified), the survivor count runs as follows: under setting [8], 4 of 6; under setting [7], 4 of 6. Turning to `c1ccc(C2C(c3ccccc3)N2CCCN2CCOCC2)cc1` (stereo unspecified), the survivor count under setting [11] is recorded as 3 of 6. With `Brc1cccc[n+]1-c1ccc2cc(-[n+]3ccccc3Br)ccc2c1`, the survivor count reads like this: (dose: 18.75 mg/kg/injection, schedule: Q01DX001 (ip), vehicle: other) 1 of 6; (dose: 37.5 mg/kg/injection, schedule: Q01DX001 (ip), vehicle: other) 0 of 6; (dose: 75.0 mg/kg/injection, schedule: Q01DX001 (ip), vehicle: other) 0 of 6; under setting [4], 0 of 6; under setting [5], 1 of 6.

Regarding `CC(=O)NCCOc1ccc([N+](=O)[O-])cc1Cl`, the survivor count under setting [9] is 1 of 3.
